In the supplement of paper PMC10849652:
The other results are listed elsewhere or left out.

Protein sequences, listed by entry. Tags and fused reporters are not part of them. Lines headed by an entry give the natural chain unless they say otherwise; changes in a name come on top.
UniProt O14545: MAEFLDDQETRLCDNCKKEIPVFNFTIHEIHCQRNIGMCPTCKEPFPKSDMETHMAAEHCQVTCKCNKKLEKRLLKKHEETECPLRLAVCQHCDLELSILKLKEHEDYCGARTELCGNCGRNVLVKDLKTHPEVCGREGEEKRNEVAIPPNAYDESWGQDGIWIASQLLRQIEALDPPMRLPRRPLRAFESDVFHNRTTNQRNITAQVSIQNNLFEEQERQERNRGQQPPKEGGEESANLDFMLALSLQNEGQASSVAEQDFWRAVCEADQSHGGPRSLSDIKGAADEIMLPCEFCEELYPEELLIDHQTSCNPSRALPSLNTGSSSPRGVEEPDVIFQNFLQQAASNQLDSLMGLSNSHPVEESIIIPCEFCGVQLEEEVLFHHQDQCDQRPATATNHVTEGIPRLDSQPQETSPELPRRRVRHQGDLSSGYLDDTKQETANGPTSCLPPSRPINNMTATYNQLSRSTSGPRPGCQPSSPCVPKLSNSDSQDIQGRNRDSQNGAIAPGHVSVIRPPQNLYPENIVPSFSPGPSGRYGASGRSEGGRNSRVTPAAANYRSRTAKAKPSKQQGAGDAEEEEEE
UniProt Q12999: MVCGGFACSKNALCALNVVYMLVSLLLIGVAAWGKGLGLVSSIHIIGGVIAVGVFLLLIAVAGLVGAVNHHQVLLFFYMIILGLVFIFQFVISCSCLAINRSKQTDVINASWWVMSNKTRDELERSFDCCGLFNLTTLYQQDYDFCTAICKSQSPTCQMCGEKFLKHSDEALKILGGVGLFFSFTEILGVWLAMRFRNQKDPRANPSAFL
UniProt Q6AZZ1: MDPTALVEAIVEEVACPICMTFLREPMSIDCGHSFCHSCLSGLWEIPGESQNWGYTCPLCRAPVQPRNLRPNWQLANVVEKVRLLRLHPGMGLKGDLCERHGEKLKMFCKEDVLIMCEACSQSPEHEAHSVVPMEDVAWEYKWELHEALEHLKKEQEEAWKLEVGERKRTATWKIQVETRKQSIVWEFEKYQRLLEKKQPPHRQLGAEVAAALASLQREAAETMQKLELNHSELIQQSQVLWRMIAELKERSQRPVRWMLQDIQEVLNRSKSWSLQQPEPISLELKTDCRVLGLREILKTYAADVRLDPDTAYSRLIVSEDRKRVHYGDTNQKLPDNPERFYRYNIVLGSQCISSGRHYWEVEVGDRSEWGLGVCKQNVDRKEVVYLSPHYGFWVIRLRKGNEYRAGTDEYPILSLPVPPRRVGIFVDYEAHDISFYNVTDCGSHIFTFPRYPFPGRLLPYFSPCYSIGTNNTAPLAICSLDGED
UniProt Q12899: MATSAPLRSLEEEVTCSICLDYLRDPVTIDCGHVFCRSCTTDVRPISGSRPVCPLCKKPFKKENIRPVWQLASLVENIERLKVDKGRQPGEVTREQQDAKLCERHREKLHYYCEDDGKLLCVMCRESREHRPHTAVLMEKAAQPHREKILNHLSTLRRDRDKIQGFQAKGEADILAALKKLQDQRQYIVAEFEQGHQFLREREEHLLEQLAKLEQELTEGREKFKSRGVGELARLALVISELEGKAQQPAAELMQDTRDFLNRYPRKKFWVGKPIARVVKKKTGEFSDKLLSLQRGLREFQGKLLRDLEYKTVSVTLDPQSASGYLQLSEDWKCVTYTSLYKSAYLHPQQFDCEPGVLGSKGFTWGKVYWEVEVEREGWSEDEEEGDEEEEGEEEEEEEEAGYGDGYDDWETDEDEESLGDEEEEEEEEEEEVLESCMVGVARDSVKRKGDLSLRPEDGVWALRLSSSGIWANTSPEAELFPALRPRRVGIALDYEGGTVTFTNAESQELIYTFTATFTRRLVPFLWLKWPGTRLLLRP
UniProt Q8N4P2: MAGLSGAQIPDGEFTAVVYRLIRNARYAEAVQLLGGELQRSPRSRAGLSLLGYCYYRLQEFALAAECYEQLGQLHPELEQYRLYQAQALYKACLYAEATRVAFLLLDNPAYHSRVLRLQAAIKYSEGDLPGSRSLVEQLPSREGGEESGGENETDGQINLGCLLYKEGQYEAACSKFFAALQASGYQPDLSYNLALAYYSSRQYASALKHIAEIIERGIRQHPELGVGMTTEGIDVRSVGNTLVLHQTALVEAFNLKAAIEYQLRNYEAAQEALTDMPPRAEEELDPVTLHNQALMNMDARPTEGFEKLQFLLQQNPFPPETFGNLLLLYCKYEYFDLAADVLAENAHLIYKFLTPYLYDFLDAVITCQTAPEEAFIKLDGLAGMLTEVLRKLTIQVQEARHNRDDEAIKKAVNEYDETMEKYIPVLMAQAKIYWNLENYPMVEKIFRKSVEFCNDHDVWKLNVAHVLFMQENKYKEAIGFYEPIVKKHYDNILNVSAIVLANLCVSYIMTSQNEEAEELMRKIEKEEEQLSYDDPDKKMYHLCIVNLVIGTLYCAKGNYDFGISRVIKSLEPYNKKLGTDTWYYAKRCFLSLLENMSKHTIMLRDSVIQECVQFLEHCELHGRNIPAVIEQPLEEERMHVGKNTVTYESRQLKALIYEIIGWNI
UniProt Q9ULT0: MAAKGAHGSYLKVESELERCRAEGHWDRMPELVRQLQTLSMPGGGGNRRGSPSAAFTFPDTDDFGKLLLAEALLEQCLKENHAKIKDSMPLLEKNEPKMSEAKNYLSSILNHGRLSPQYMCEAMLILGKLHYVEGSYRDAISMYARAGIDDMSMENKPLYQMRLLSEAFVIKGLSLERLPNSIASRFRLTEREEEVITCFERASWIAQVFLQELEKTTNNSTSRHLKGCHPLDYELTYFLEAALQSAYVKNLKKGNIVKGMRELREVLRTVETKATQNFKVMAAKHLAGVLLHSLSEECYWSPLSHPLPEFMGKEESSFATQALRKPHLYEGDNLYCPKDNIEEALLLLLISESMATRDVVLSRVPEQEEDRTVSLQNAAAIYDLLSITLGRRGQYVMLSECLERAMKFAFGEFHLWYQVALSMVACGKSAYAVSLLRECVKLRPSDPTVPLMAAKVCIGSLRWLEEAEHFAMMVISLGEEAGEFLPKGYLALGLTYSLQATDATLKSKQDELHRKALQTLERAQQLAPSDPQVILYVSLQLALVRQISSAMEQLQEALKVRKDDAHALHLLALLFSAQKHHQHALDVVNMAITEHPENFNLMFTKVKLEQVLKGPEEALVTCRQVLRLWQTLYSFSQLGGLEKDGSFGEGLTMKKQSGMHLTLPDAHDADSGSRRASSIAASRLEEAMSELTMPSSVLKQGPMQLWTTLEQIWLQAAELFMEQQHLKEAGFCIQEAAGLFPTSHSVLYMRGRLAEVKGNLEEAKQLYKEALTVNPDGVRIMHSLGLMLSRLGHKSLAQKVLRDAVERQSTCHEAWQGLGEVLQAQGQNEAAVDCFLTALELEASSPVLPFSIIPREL
UniProt Q14679: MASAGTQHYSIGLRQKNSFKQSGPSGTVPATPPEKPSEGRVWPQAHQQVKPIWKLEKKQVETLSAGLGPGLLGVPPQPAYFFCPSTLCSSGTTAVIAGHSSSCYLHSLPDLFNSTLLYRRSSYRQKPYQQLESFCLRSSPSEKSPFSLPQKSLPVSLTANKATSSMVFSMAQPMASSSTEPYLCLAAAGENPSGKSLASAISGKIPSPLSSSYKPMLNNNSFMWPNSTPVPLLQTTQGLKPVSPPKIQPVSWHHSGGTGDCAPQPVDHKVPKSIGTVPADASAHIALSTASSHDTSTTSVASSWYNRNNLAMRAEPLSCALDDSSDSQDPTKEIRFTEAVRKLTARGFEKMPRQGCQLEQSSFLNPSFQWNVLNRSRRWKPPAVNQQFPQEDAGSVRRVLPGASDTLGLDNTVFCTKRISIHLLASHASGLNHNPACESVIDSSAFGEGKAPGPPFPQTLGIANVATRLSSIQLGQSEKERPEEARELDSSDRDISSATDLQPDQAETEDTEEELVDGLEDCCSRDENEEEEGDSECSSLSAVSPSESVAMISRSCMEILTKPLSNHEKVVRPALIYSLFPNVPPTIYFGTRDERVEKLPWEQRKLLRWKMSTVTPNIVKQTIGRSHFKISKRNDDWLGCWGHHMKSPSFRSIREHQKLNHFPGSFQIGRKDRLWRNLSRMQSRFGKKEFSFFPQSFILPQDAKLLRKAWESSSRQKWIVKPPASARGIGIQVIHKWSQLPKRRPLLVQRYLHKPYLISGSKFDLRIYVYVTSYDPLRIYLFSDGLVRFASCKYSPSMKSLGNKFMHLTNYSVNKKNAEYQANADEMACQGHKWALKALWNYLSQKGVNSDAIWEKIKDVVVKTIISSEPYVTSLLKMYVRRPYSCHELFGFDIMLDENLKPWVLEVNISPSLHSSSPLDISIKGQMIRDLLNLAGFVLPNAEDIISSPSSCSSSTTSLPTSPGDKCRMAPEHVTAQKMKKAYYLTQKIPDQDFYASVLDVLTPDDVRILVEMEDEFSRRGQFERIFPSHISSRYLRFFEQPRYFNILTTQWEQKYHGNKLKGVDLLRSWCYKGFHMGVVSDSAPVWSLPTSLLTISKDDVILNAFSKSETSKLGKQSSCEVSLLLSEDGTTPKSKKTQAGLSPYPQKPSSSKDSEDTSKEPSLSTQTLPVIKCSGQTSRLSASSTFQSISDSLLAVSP
UniProt Q13077: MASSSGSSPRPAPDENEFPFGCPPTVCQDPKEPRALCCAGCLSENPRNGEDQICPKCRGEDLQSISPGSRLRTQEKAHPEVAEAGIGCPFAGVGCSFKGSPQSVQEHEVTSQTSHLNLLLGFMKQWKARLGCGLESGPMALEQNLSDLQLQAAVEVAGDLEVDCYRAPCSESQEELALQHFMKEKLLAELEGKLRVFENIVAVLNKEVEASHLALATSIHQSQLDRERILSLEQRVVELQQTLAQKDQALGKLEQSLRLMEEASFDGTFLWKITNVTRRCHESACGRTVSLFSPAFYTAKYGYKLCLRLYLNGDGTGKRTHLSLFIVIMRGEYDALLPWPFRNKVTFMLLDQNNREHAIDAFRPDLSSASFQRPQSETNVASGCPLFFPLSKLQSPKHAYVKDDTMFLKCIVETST
UniProt O94972: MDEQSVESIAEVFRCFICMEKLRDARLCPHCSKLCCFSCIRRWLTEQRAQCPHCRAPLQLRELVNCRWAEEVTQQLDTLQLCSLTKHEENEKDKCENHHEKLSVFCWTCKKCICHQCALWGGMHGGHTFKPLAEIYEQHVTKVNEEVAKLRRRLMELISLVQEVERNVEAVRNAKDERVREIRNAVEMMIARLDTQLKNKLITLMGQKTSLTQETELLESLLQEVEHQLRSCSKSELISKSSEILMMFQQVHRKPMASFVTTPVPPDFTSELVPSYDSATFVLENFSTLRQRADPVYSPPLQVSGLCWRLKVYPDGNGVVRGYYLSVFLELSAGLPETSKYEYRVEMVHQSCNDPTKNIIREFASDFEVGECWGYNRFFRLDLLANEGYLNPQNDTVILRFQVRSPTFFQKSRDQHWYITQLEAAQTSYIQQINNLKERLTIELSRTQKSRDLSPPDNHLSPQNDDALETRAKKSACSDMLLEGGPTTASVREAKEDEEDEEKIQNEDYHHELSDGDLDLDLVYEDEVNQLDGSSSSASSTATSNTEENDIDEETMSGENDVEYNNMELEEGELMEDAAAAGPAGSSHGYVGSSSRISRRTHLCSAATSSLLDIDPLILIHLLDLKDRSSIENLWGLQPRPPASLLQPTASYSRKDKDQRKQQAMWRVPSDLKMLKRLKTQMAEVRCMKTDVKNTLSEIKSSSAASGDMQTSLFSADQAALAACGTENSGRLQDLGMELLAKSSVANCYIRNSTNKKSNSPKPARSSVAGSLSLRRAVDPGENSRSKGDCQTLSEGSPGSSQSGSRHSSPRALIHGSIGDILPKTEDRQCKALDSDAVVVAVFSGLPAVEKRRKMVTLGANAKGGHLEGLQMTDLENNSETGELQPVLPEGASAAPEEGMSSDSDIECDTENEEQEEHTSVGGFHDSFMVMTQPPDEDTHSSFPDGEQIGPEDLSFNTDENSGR
UniProt O95900: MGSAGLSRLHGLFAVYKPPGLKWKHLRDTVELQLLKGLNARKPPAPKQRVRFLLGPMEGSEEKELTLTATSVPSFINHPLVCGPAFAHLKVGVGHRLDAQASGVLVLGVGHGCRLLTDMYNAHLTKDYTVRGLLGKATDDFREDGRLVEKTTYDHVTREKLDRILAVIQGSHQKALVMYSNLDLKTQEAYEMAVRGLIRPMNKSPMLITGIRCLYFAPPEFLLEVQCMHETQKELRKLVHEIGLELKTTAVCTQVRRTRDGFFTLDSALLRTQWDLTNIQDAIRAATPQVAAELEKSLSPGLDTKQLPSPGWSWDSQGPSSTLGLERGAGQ

Tests used:
Assay in all cases: log2 fold change, soluble protein after heating vs DMSO (PISA); higher = thermal stabilisation; K562 lysate, 10 uM; active = over 0.2 and 3.5 SD of the protein, either way, in both replicates (recomputed)
[1] = compound: C=CC(=O)N1CCC[C@@H](n2nc(-c3ccc(Oc4ccccc4)cc3)c3c(N)ncnc32)C1 [ibrutinib]
How it was run: (§1)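 Thermal stability, expressed as log-two fold change relative to solvent controls, is given from duplicates. Crude K562 extract in PBS pH 7.4 with 1 mM MgCl2, at 1 mg/mL protein, was treated with 10 μM compound for 30 min and heated in aliquots for 3 min across 48°C-58°C. After pooling, adjustment to 0.5% NP-40 at 4°C and centrifugation at 21,000xg for 90 min, supernatant protein was measured by TMTpro 16plex LC-MS/MS with channel sums equalised.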

[2] = compound: CC(=O)c1cnc2ccc(-c3cc(Cl)c(O)c(Cl)c3)nc2c1N[C@H]1CC[C@H](CN(C)C)CC1
How it was run: as §1

[3] = compound: CC(C)(C)Cn1c(N)nc2ccc(-c3[nH]c(C(C)(C)C)nc3-c3ccc(F)cc3)nc21 [ralimetinib]
How it was run: as §1

[4] = compound: CC(C)(O)CC(=O)NCCn1ccc2ncnc(Nc3ccc(Oc4cccc(C(F)(F)F)c4)c(Cl)c3)c21
How it was run: as §1

[5] = compound: CC(C)C1=C2N=C(C=C(N2N=C1)NCC3=CC=CC=C3)NCCCCCCN
How it was run: as §1

[6] = compound: CC1=C(C(CC(=O)N1)C2=CC=C(C=C2)C(F)(F)F)C(=O)NC3=C(C=C4C(=C3)C=NN4)F
How it was run: as §1

[7] = compound: CC1=C(C2=C(C=C1)C(=O)C3=CC=CC=C3N2CCCN)C
How it was run: as §1

[8] = compound: CC1=C(C=C(C=C1)NC(=O)C2=CC(=CC=C2)C(C)(C)C#N)NC3=CC4=C(C=C3)N=CN(C4=O)C
How it was run: as §1

[9] = compound: CC1=C(C=C(C=C1)NC(=O)C2=CC(=CC=C2)N(C)C)NC(=O)C3=CC=C(C=C3)O
How it was run: as §1

[10] = compound: CC1=CC=C(C=C1)SC2=C3C=C(SC3=CN=C2)C(=O)N
How it was run: as §1

[11] = compound: CCCS(=O)(=O)Nc1ccc(F)c(C(=O)c2c[nH]c3ncc(-c4ccc(Cl)cc4)cc23)c1F [vemurafenib]
How it was run: as §1

[12] = compound: CCCS(=O)(=O)Nc1ccc(F)c(C(=O)c2c[nH]c3ncc(Cl)cc23)c1F
How it was run: as §1

[13] = compound: CCN(CCCOc1ccc2c(Nc3cc(CC(=O)Nc4cccc(F)c4)[nH]n3)ncnc2c1)CCOP(=O)(O)O [barasertib]
How it was run: as §1

[14] = compound: CC[C@@H]1C(=O)N(C)c2cnc(Nc3ccc(C(=O)NC4CCN(C)CC4)cc3OC)nc2N1C1CCCC1
How it was run: as §1

[15] = compound: CC[C@@H]1C(=O)N(C)c2cnc(Nc3ccc(C(=O)N[C@H]4CC[C@H](N5CCN(CC6CC6)CC5)CC4)cc3OC)nc2N1C(C)C [volasertib]
How it was run: as §1

[16] = compound: CCn1c(C(=O)N(C2CC2)C2CC2)cc2c3c(ncn3C)c(Nc3cc(C)n(C)n3)nc21
How it was run: as §1

[17] = compound: CCn1cc(-c2ccnc3[nH]c(-c4cccc(CN(C)C)c4)cc23)c(-c2ccc(NC(=O)N(C)C)cc2)n1
How it was run: as §1

[18] = compound: CN1CCC(CNc2ccc3ncc(-c4cccc(OC(F)(F)F)c4)n3n2)CC1
How it was run: as §1

[19] = compound: CN1CCN(CCOc2cc(OC3CCOCC3)c3c(Nc4c(Cl)ccc5c4OCO5)ncnc3c2)CC1 [saracatinib]
How it was run: as §1

[20] = compound: CN1CCN(c2nc(C3=C(c4c[nH]c5ccccc45)C(=O)NC3=O)c3ccccc3n2)CC1 [sotrastaurin]
How it was run: as §1

Measured: log2 fold change

TROAP (UniProt Q12815)
inactive: [1] 0.191 | [2] -0.096 | [3] 0.042 | [4] -0.02 | [5] 0.037 | [6] 0.011 | [7] 0.02 | [8] -0.006 | [9] 0.08 | [10] -0.25 | [11] 0.113 | [12] 0.146 | [13] 0.053 | [14] 0.063 | [15] 0.31 | [16] 0.043 | [17] -0.03 | [18] 0.042 | [19] 0.014 | [20] 0.002

TRAFD1 (UniProt O14545)
inactive: [1] -0.026 | [2] -0.032 | [3] 0.048 | [4] 0.004 | [5] -0.049 | [6] -0.062 | [7] 0.049 | [8] 0.053 | [9] -0.031 | [10] -0.035 | [11] -0.015 | [12] 0.078 | [13] -0.02 | [14] 0.036 | [15] 0.023 | [16] 0.006 | [17] -0.008 | [18] -0.109 | [19] 0.047 | [20] -0.101

TSEN15, A0A2U3TZM3
inactive: [2] -0.289 | [3] 0.275 | [4] 0.124 | [6] -0.064 | [7] 0.073 | [9] -0.249 | [10] 0.113 | [11] -0.007 | [12] -0.004 | [15] 0.165 | [16] -0.29 | [17] 0.116 | [18] 0.506 | [19] 0.301

TRPS1 isoform 2 (UniProt Q9UHF7)
inactive: [2] -0.009 | [5] -0.028 | [7] -0.296 | [8] 0.198 | [10] 0.347 | [12] -0.214 | [15] -0.33 | [17] 0.206 | [18] 0.161 | [19] 0.249 | [20] 0.291

TSPAN31 (UniProt Q12999)
inactive: [7] 0.114 | [8] -0.088 | [11] 0.043 | [19] -0.086 | [20] 0.086

TRIM41 (UniProt Q8WV44)
inactive: [2] 0.068 | [7] -0.144 | [8] -0.039 | [10] 0.024 | [11] -0.059 | [12] -0.092 | [14] 0.017 | [15] -0.075 | [17] 0.16 | [18] -0.141 | [19] -0.118 | [20] 0.052

TRIM68 (UniProt Q6AZZ1)
inactive: [5] -0.027 | [6] -0.124 | [8] 0.109 | [14] -0.111 | [20] 0.066

TRAF3IP2 (UniProt O43734)
inactive: [3] -0.031 | [4] 0.115 | [5] -0.001 | [9] -0.02 | [11] -0.163 | [16] -0.127 | [17] 0.095 | [18] 0.032

TRIM26 (UniProt Q12899)
inactive: [2] -0.254 | [3] -0.091 | [4] 0.116 | [6] 0.056 | [8] 0.048 | [9] -0.09 | [10] 0.203 | [12] 0.04 | [15] 0.156 | [16] 0.077 | [20] 0.043

TTC30B (UniProt Q8N4P2)
inactive: [8] -0.144 | [11] -0.092 | [14] 0.11 | [17] -0.062 | [18] -0.168 | [20] 0.004

TRMT44 (UniProt Q8IYL2)
inactive: [8] 0.003 | [20] 0.067

TRIB3 (UniProt Q96RU7)
inactive: [5] -0.009 | [7] 0.053 | [14] 0.202 | [19] 0.099

Random excerpt: two entries already listed, in no set order.
TTC30B (UniProt Q8N4P2)
inactive: [8] -0.144 | [11] -0.092 | [14] 0.11 | [17] -0.062 | [18] -0.168 | [20] 0.004

TRAF3IP2 (UniProt O43734)
inactive: [3] -0.031 | [4] 0.115 | [5] -0.001 | [9] -0.02 | [11] -0.163 | [16] -0.127 | [17] 0.095 | [18] 0.032

Next part

TTC7A isoform 4 (UniProt Q9ULT0)
inactive: [6] 0.257

TTLL4 (UniProt Q14679)
inactive: [3] -0.011 | [4] -0.059 | [6] -0.205 | [9] -0.106 | [16] 0.099

TRAM2 (UniProt Q15035)
inactive: [2] 0.05 | [3] 0.032 | [4] -0.158 | [8] 0 | [9] 0.003 | [10] 0.106 | [12] 0.237 | [15] -0.2 | [16] 0.123 | [20] -0.107

TRIM16 (UniProt O95361)
inactive: [5] 0.04 | [7] -0.007 | [14] -0.012 | [19] 0.029

TRAF1 (UniProt Q13077)
inactive: [3] 0.17 | [4] 0.148 | [9] -0.326 | [16] -0.124

TTC26
inactive: [3] 0.105 | [4] -0.048 | [6] -0.033 | [7] 0.097 | [9] -0.355 | [14] -0.025 | [16] 0.152 | [17] 0.104 | [18] -0.096 | [19] -0.018

TTBK2 (UniProt Q6IQ55)
inactive: [5] 0.128 | [8] -0.026 | [14] -0.143 | [20] -0.093

TRIM47 (UniProt Q96LD4)
inactive: [2] -0.111 | [5] -0.163 | [6] -0.074 | [7] -0.083 | [10] -0.165 | [11] -0.071 | [12] -0.052 | [14] 0.127 | [15] -0.073 | [17] 0.137 | [18] -0.035 | [19] 0.346

TSPYL6 (UniProt Q8N831)
inactive: [3] 0.118 | [4] -0.134 | [5] -0.013 | [7] -0.019 | [9] 0.023 | [16] 0.075 | [19] -0.022

TRIM3 (UniProt O75382)
inactive: [2] -0.06 | [5] -0.09 | [10] 0.048 | [11] 0.13 | [12] -0.085 | [14] -0.029 | [15] 0.09

TRAF7 (UniProt Q6Q0C0)
inactive: [3] 0.046 | [4] -0.091 | [6] 0.023 | [7] -0.022 | [8] 0.07 | [9] -0.031 | [11] -0.07 | [14] 0.053 | [16] 0.012 | [17] -0.065 | [18] 0.191 | [19] 0.132 | [20] -0.044

TRIM37 (UniProt O94972)
inactive: [3] -0.308 | [4] 0.057 | [5] 0.051 | [7] 0.066 | [8] -0.037 | [9] -0.01 | [14] -0.054 | [16] -0.055 | [19] -0.065 | [20] 0.027

TRUB2 (UniProt O95900)
inactive: [3] 0.034 | [4] 0.039 | [5] 0.015 | [7] -0.013 | [9] -0.001 | [11] 0.061 | [14] -0.003 | [16] -0.026 | [17] 0.045 | [18] -0.017 | [19] 0.044
